Results are given in words; binding and its absence hold for the method and conditions named. In cells and extracts the contact can be indirect. Some binding calls cover weakened binding; strength is not graded here. Where a sequence is shown, tags or fusion partners need not be part of it.
Target: JAK2 (endogenous in HEL cells, which harbour the JAK2V617F mutation) (human (endogenous in HEL)) (UniProt O60674)
Assay: co-IP; HEL cells with 3 × Flag-CHST15 wild type or mutant; RIPA lysate, precleared with Protein A/G PLUS-agarose and control IgG; anti-JAK2 or anti-Flag-CHST15 antibody overnight at 4 °C; immunoblot

Protein sequences, listed by entry. Tags and fused reporters are not part of them. Lines headed by an entry give the natural chain unless they say otherwise; changes in a name come on top.
UniProt O60674: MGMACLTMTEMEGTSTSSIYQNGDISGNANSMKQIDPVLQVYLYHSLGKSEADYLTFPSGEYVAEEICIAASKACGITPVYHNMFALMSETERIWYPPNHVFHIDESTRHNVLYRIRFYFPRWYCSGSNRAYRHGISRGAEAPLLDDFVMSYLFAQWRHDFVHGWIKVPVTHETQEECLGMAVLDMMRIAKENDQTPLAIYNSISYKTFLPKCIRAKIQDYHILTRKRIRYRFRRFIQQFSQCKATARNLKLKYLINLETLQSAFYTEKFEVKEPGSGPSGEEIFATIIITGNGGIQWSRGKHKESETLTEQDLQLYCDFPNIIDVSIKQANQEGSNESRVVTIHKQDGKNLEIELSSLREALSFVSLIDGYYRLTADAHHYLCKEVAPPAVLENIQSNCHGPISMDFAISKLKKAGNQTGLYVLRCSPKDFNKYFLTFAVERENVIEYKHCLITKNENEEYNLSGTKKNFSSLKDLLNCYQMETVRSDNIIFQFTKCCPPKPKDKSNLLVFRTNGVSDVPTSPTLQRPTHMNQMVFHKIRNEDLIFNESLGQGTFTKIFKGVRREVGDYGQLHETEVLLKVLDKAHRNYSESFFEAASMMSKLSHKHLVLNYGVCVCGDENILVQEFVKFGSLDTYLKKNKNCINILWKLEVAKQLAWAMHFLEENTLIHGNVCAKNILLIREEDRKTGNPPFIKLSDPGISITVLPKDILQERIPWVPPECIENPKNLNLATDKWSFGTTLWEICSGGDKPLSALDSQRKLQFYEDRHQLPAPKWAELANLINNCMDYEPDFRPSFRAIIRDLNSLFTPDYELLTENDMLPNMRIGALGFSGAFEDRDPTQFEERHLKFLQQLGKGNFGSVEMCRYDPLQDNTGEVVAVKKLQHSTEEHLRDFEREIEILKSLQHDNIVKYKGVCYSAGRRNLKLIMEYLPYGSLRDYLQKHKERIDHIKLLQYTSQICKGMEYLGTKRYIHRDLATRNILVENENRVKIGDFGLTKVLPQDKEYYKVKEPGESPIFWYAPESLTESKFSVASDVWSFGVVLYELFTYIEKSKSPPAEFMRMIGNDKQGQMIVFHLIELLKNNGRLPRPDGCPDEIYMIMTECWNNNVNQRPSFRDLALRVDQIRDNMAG

B1: 3 × Flag-tagged wild-type CHST15 (carbohydrate sulfotransferase 15) (protein, UniProt Q7LFX5-2 1-506)
chain: MRHCINCCIQLLPDGAHKQQVNCQGGPHHGHQACPTCKGENKILFRVDSKQMNLLAVLEVRTEGNENWGGFLRFKKGKRCSLVFGLIIMTLVMASYILSGAHQELLISSPFHYGGFPSNPSLMDSENPSDTKEHHHQSSVNNISYMKDYPSIKLIINSITTRIEFTTRQLPDLEDLKKQELHMFSVIPNKFLPNSKSPCWYEEFSGQNTTDPYLTNSYVLYSKRFRSTFDALRKAFWGHLAHAHGKHFRLRCLPHFYIIGQPKCGTTDLYDRLRLHPEVKFSAIKEPHWWTRKRFGIVRLRDGLRDRYPVEDYLDLFDLAAHQIHQGLQASSAKEQSKMNTIIIGEASASTMWDNNAWTFFYDNSTDGEPPFLTQDFIHAFQPNARLIVMLRDPVERLYSDYLYFASSNKSADDFHEKVTEALQLFENCMLDYSLRACVYNNTLNNAMPVCTPPPRTPRAGPWQKELVCCYYASGIVGLRFSIGTERSVLMCKCCSPLFMDVKAEN
  binding: binds

From publication PMC9263130
